Assay results as given in the supplement of paper PMC12067093, “Discovery and optimisation of a covalent ligand for TRIM25 and its application to targeted protein ubiquitination” (Chemical Science, 2025).
Some of the results follow.

Sequences of proteins named here, by UniProt entry; tags and fusion partners are left off. A change or cut given only in a name is not applied to a line headed by its entry.
UniProt P54277: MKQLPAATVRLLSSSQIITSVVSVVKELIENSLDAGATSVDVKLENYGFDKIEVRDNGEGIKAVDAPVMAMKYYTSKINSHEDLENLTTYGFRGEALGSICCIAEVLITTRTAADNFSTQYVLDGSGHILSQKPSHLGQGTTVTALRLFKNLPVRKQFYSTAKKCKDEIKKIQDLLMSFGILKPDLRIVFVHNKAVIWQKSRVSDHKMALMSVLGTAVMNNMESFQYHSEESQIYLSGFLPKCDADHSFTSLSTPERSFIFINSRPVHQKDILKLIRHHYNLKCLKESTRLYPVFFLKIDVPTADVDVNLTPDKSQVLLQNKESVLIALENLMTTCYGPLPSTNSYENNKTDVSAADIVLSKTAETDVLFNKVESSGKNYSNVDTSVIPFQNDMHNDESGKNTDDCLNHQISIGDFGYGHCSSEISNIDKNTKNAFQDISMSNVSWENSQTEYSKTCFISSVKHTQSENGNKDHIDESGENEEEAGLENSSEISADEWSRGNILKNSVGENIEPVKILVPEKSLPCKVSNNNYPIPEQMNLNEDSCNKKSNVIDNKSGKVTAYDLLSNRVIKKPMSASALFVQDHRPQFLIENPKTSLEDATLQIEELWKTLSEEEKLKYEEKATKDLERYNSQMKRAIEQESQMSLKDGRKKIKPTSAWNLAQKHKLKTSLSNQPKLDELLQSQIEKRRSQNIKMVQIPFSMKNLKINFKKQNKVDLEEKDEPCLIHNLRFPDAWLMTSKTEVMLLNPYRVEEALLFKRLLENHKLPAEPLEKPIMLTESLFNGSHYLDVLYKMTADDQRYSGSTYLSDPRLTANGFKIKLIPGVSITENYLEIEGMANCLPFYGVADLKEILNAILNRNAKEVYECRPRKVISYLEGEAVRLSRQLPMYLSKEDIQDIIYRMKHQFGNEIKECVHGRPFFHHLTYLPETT
UniProt O75439: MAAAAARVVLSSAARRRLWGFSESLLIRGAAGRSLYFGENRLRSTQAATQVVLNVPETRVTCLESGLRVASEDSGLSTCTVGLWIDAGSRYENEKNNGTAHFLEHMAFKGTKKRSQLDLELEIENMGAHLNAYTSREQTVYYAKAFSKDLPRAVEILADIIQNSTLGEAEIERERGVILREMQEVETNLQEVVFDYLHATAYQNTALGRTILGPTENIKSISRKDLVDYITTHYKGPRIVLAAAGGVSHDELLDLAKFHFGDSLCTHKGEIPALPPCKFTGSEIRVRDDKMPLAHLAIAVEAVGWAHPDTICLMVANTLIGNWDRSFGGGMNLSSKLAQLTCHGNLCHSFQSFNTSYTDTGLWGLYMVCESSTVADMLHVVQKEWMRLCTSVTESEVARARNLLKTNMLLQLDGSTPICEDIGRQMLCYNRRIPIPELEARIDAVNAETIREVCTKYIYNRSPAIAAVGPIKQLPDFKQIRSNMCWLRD
UniProt Q99570, whole entry, looked up: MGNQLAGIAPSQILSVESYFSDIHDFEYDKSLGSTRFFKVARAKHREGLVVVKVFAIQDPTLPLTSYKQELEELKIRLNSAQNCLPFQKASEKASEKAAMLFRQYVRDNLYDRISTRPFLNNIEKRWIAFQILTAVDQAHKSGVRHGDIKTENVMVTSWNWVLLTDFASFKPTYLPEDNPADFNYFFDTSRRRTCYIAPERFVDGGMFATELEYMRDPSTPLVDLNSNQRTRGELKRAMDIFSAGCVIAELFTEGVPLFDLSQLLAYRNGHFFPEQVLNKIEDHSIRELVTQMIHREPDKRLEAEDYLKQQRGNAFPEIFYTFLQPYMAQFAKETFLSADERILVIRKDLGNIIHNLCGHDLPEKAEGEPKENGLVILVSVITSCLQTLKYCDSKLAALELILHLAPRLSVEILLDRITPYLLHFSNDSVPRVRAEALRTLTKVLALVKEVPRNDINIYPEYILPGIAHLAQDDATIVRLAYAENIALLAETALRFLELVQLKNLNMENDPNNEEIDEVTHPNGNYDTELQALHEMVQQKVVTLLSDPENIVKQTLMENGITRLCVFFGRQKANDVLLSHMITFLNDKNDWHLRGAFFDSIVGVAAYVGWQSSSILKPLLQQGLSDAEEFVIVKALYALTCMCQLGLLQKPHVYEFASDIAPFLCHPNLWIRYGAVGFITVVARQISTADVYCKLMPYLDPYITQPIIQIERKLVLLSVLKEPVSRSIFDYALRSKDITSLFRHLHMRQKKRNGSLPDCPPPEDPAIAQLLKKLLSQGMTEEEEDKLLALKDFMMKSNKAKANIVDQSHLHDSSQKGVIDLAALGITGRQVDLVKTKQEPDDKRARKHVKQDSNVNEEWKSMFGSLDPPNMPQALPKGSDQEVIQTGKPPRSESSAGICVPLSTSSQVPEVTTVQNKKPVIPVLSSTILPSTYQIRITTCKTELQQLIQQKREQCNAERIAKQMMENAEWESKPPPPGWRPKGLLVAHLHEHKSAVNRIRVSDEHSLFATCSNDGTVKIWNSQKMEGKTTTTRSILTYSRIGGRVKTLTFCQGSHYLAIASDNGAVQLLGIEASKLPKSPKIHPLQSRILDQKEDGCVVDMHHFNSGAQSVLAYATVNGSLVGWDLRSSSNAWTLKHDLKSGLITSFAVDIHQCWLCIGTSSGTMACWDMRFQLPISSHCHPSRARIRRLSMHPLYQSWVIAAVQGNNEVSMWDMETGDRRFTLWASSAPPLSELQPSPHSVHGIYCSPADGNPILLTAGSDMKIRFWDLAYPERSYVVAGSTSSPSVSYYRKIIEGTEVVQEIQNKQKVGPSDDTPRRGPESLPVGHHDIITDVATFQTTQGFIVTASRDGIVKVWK
UniProt P14618, whole entry, looked up: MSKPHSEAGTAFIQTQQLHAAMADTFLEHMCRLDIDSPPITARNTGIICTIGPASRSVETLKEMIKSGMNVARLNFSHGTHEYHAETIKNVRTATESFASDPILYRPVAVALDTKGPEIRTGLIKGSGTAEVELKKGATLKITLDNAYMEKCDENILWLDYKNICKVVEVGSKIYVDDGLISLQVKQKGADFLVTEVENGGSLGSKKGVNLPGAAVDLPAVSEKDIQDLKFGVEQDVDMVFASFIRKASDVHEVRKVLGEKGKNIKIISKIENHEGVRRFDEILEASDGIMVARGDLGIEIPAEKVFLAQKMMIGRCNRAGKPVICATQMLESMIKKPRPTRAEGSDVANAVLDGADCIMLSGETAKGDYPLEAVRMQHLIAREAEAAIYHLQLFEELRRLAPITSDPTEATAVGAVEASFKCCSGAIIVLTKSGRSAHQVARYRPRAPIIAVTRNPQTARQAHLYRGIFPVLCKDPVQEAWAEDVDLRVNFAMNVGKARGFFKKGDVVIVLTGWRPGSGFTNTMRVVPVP
UniProt P42338: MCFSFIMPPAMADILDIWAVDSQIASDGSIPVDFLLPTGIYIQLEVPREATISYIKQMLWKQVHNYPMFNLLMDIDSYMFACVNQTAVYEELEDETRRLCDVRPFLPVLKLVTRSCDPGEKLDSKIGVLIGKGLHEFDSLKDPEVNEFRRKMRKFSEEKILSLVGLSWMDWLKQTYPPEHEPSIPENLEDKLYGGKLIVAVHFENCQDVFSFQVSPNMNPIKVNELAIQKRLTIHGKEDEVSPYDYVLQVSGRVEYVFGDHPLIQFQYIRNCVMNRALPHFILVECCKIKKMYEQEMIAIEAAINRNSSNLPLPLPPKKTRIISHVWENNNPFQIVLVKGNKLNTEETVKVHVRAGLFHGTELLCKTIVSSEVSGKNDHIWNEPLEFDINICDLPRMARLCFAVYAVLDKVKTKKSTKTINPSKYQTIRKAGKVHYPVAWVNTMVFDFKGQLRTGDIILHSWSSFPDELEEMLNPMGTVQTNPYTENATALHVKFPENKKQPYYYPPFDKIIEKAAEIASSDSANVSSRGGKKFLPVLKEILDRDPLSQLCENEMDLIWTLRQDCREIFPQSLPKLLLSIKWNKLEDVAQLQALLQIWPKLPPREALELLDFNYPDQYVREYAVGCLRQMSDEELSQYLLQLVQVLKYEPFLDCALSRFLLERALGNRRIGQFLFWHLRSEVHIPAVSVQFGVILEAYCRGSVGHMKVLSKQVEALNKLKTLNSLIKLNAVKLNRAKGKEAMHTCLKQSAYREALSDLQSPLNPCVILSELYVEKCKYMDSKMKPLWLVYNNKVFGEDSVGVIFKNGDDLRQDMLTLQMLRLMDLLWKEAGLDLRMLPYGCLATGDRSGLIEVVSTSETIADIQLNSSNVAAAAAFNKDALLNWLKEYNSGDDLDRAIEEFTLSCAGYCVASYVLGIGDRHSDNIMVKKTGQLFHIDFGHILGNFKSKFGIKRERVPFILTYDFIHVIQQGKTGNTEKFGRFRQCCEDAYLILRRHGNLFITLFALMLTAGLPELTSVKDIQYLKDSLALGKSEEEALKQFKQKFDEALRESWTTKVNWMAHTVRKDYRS
UniProt Q10713: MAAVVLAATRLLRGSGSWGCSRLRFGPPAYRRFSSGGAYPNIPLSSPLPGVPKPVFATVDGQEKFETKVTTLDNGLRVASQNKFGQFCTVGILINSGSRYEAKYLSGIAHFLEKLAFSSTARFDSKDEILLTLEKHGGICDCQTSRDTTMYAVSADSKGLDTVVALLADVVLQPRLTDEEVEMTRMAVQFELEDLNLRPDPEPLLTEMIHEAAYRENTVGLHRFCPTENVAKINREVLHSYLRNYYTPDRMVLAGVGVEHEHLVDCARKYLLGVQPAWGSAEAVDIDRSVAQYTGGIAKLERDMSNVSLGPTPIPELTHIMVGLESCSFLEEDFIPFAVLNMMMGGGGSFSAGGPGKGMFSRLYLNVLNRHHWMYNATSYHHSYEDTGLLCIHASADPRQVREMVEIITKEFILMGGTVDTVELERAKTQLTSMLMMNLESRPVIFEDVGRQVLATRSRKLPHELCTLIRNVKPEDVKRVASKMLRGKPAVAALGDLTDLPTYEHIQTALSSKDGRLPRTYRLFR
UniProt Q8N490: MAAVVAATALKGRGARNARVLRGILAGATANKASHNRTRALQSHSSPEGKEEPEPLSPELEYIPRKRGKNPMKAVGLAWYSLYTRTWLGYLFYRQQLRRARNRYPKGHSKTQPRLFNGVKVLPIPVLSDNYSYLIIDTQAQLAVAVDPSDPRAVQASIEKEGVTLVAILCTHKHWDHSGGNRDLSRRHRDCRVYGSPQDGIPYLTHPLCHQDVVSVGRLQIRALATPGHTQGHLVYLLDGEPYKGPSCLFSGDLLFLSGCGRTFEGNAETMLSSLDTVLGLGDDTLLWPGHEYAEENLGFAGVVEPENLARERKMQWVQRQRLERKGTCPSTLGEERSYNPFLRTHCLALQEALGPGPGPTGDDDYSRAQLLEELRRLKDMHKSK
UniProt Q9HB19: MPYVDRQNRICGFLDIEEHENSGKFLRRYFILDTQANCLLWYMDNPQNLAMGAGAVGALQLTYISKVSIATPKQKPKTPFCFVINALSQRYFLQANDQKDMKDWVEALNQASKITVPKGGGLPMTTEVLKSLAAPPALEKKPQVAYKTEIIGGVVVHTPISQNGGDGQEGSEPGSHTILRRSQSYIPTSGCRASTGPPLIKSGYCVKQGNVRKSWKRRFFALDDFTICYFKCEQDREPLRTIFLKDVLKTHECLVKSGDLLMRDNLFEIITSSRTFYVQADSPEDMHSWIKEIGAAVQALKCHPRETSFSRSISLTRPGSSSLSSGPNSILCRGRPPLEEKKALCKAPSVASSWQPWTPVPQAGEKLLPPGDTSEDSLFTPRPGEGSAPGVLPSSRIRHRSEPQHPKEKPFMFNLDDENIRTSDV
UniProt P54278: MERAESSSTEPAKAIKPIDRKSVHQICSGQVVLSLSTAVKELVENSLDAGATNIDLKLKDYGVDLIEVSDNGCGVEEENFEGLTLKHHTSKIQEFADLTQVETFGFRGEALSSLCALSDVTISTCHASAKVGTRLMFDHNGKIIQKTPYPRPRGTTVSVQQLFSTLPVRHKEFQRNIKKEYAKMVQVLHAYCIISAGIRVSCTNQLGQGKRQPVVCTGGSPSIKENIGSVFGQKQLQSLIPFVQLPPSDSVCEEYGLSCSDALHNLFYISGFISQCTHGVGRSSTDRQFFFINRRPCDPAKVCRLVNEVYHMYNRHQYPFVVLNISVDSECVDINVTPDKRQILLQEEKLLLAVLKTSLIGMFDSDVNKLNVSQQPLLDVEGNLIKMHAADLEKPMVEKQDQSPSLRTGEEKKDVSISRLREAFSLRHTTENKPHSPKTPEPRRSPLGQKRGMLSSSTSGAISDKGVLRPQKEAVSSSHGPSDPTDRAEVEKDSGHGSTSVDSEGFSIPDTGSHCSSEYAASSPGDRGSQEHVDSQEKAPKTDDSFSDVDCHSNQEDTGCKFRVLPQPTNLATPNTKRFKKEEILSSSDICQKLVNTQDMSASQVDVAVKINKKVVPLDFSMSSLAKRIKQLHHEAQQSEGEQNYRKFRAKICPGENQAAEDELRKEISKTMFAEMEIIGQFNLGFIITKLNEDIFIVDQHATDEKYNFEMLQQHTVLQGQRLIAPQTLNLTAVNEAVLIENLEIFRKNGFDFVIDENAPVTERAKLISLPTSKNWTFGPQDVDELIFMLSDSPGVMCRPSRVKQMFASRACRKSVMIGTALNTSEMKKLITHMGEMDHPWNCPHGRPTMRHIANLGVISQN

Compound: CC1Cc2ccccc2N1C(=O)C1CCCN(C1)C(=O)CCl (mixture of isomers) [TRIM25 ligand 11 (diastereomer mixture)]
Assay: probe-labelled cysteine peptide fold change vs DMSO (competition) (log2 fold change); higher = less target engagement (more negative = stronger competition)
Details: THP-1, incubation time: 4 h
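Also: competitive chemoproteomic profiling in live THP-1 cells with an iodoacetamide desthiobiotin (IA-DTB) probe, comparing probe-labelled peptide intensities in compound-treated cells against DMSO-treated controls.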

Target | probe-labelled cysteine peptide fold change (10 µM) | probe-labelled cysteine peptide fold change (50 µM)
PMS1_P54277_725_DEPCLIHNLR (UniProt P54277) | -0.0476 | -0.111
PMPCB_O75439_277_GEIPALPPCK (UniProt O75439) | 0.27 | 0.115
PIK3R4_Q99570_84_LNSAQNCLPFQK (UniProt Q99570) | -0.0256 | -0.0742
PLOD1_Q02809_369_NMGADLCR (UniProt Q02809) | 0.0145 | 0.0742
PKM_P14618_326_AGKPVICATQMLESMIK (UniProt P14618) | -0.117 | -0.199
PIK3CD_O00329_718_ELMHLCMR (UniProt O00329) | 0.0534 | 0.104
PKM_P14618-2_423_CLAAALIVLTESGR (UniProt P14618) | 0.102 | 0.159
PML_P29590_389_LQDLSSCITQGK (UniProt P29590) | -0.0914 | -0.0452
PIK3CB_P42338_116_SCDPGEK (UniProt P42338) | -0.0422 | -0.082
PKM_P14618_326_PVICATQMLESMIK (UniProt P14618) | -0.0487 | -0.0738
PMPCA_Q10713_266_MVLAGVGVEHEHLVDCAR (UniProt Q10713) | 0.0959 | 0.0674
PIK3CB_P42338_287_ALPHFILVECCK (UniProt P42338) | -0.0516 | -0.0501
PNKD_Q8N490_329_KGTCPSTLGEER (UniProt Q8N490) | -0.0643 | -0.239
PLEKHA2_Q9HB19_253_THECLVK (UniProt Q9HB19) | -0.018 | 0.0246
PMS2_P54278_653_ICPGENQAAEDELRK (UniProt P54278) | 0.0335 | -0.00631

Reformatted: results already given
PLEKHA2_Q9HB19_253_THECLVK (UniProt Q9HB19)
  probe-labelled cysteine peptide fold change (10 µM): -0.018; probe-labelled cysteine peptide fold change (50 µM): 0.0246
PMS2_P54278_653_ICPGENQAAEDELRK (UniProt P54278)
  probe-labelled cysteine peptide fold change (10 µM): 0.0335; probe-labelled cysteine peptide fold change (50 µM): -0.00631
